This assay relates to L1210 leukemia ip in BDF1 mice, survival T/C. Briefly: NCI In Vivo Anticancer Drug Screen. Data for tumor model L1210 Leukemia (intraperitoneal) in B6D2F1 (BDF1) mice. The note with it: T/C endpoint: mean survival time, higher T/C = longer survival.
Setting [1] is: dose: 400.0 mg/kg/injection, schedule: Q01DX009 (ip), vehicle: Klucel (hydroxypropylcellulose) (HPC).
The mark [2] stands for this setting: dose: 400.0 mg/kg/injection, schedule: Q04DX003 (ip), vehicle: saline with Tween-80.
Where [3] appears, read: dose: 50.0 mg/kg/injection, schedule: Q01DX009 (ip), vehicle: Klucel (hydroxypropylcellulose) (HPC).
The mark [4] stands for this setting: dose: 100.0 mg/kg/injection, schedule: Q04DX003 (ip), vehicle: Klucel (hydroxypropylcellulose) (HPC).
[5] abbreviates: dose: 200.0 mg/kg/injection, schedule: Q04DX003 (ip), vehicle: Klucel (hydroxypropylcellulose) (HPC).
Where [6] appears, read: dose: 400.0 mg/kg/injection, schedule: Q04DX003 (ip), vehicle: Klucel (hydroxypropylcellulose) (HPC).
Setting [7] is: dose: 300.0 mg/kg/injection, schedule: Q01DX001 (ip), vehicle: saline.
Where [8] appears, read: dose: 200.0 mg/kg/injection, schedule: Q01DX001 (ip), vehicle: Klucel (hydroxypropylcellulose) (HPC).
[9] abbreviates: dose: 400.0 mg/kg/injection, schedule: Q01DX001 (ip), vehicle: Klucel (hydroxypropylcellulose) (HPC).
Where [10] appears, read: dose: 12.5 mg/kg/injection, schedule: Q01DX009 (ip), vehicle: Klucel (hydroxypropylcellulose) (HPC).
The mark [11] stands for this setting: dose: 25.0 mg/kg/injection, schedule: Q01DX009 (ip), vehicle: Klucel (hydroxypropylcellulose) (HPC).

The list is a part of this screen's results and no random one: it is rich in T/C values a quarter to a half above the control, in often repeated tests (any T/C) and in doses without a T/C. Further doses and runs are listed elsewhere. T/C gives the treated animals as a percentage of the vehicle group. Some entries give survivors of the animals treated and no T/C: the source holds a T/C of zero for them, seemingly a mark for toxic or unscored doses. Some doses without a T/C left all or most animals alive at the check, yet need not have been tolerated: survival well below the control is almost never listed, so the zero probably covers shortened survival too. Counts of survivors are from the toxicity check (mostly the fifth day) where no day follows; animals may have died later. Schedule codes are those of the source, taken here to give the interval after Q, in days (D) or hours (H), and the number of doses after X. Some structures stand for samples that the source files as different forms (salt, stereo form or complex); doses refer to the form tested. Some schedule codes hold Z or #, which are not explained here. Marks such as (2×) count equal records among those shown. Some entries were tested several times; the values are given in rising order. Where survival is the endpoint, this PubChem deposit counts one and a half times the control or more as active, and values a quarter to a half above the control carry no call in these data; other NCI protocols may use other cut-offs. Some T/C values carry the count of animals alive at the toxicity check (mostly the fifth day); where none is given, no animal had died by that day.

Consider `CS(=O)(=O)OCCNC[C@@H](O)[C@@H](O)CNCCOS(C)(=O)=O`, for which the T/C runs as follows: (dose: 3.9 mg/kg/injection, schedule: Q01DX001 (ip), vehicle: saline) 128 and 134 % of control; (dose: 6.5 mg/kg/injection, schedule: Q01DX001 (ip), vehicle: saline) 144 % of control; (dose: 10.8 mg/kg/injection, schedule: Q01DX001 (ip), vehicle: saline) 136 and 138 % of control; (dose: 18.0 mg/kg/injection, schedule: Q01DX001 (ip), vehicle: saline) 138 % of control. The survivor count by setting is: (dose: 83.3 mg/kg/injection, schedule: Q01DX001 (ip), vehicle: saline) 8 of 8; (dose: 100.0 mg/kg/injection, schedule: Q01DX001 (ip), vehicle: saline) 6 of 8; (dose: 200.0 mg/kg/injection, schedule: Q01DX001 (ip), vehicle: saline) 0 of 6; (dose: 400.0 mg/kg/injection, schedule: Q01DX001 (ip), vehicle: saline) 0 of 6.

In the case of `C/C(=C\c1ccc2c(c1)OCO2)[N+](=O)[O-]`, the survivor count is given as 2 of 6 (dose: 200.0 mg/kg/injection, schedule: Q01DX009 (ip), vehicle: Klucel (hydroxypropylcellulose) (HPC)); 3 of 3 (dose: 200.0 mg/kg/injection, schedule: Q01DX009 (ip), vehicle: saline with Tween-80); 0 of 6 under setting [1].

For the compound `c1ccc(-c2nc(Oc3ccc(Oc4nc(-c5ccccc5)nc(-c5ccccc5)n4)cc3)nc(-c3ccccc3)n2)cc1`, the survivor count was 6 of 6 (dose: 100.0 mg/kg/injection, schedule: Q04DX003 (ip), vehicle: saline with Tween-80) and 6 of 6 under setting [2].

As to `c1ccc(CCNc2ccnc3ccccc23)cc1`, the survivor count is, setting by setting: under setting [3], 3 of 6; under setting [4], 0 of 6; under setting [5], 3 of 6; under setting [6], 0 of 6.

Regarding `C=CCC1(/C(C)=C/C)C(=O)NC(=O)NC1=O`, the survivor count under setting [7] was 0 of 6.

For `COc1cc2nc3cc([N+](=O)[O-])ccc3c(Cl)c2cc1OC`, the survivor count under setting [1] is reported as 6 of 6.

Regarding `CN(Cc1ccccc1)C(=O)/C=C/c1ccccc1`, the survivor count under setting [1] is on record as 1 of 6.

As for `O=C1C2CCC1C(N1CCCC1)CC2` (centres undefined), the survivor count under setting [7] is 0 of 6.

As to `C=C(c1cn(C(C)=O)c2ccccc12)c1cn(C(C)=O)c2ccccc12`, the survivor count was 6 of 6 (dose: 200.0 mg/kg/injection, schedule: Q04DX003 (ip), vehicle: saline with Tween-80) and 6 of 6 under setting [2].

With `C[n+]1c2ccccc2c(-c2c3ccccc3[n+](C)c3ccccc23)c2ccccc21`, the survivor count runs as follows: (dose: 100.0 mg/kg/injection, schedule: Q01DX001 (ip), vehicle: Klucel (hydroxypropylcellulose) (HPC)) 1 of 6; under setting [8], 3 of 6; under setting [9], 0 of 6.

Take `Cc1ncc(CO)c(Cc2ccccc2N(C)C)c1O`: for the setting “dose: 400.0 mg/kg/injection, schedule: Q04DX002 (ip), vehicle: saline with Tween-80”, the survivor count is 0 of 3.

For the compound `CN1CCN=C1c1ccc(NC(=O)c2ccc(C(=O)Nc3ccc(C4=NCCN4C)cc3)c(Cl)c2)cc1`, where the note is “dose: 12.0 mg/kg/injection, schedule: Q01DX Z (ip), vehicle: water”, the survivor count is on record as 0 of 6.

As for `N#C/C(N)=C(\C#N)N=CC=N/C(C#N)=C(/N)C#N`, the survivor count by setting is: under setting [8], 0 of 6; under setting [9], 0 of 6.

Take `Nc1nc(N)c(C=Nc2ccc(I)cc2)c(Nc2ccc(I)cc2)n1`: the survivor count is, setting by setting: (dose: 50.0 mg/kg/injection, schedule: Q01DX001 (ip), vehicle: alcohol) 4 of 4; (dose: 100.0 mg/kg/injection, schedule: Q01DX001 (ip), vehicle: alcohol) 4 of 4; (dose: 200.0 mg/kg/injection, schedule: Q01DX001 (ip), vehicle: alcohol) 4 of 4.

For `COC(=O)C1(C)CCC(c2ccc(OC)cc2)C(CC(=O)O)C1=O` (centres undefined), the survivor count (dose: 200.0 mg/kg/injection, schedule: Q01DX009 (ip), vehicle: saline) is given as 6 of 6.

Consider `O=C(CCCc1ccc(N(CCCl)CCCl)cc1)OCCc1ccccc1`, for which the T/C (dose: 100.0 mg/kg/injection, schedule: Q04DX002 (ip), vehicle: saline) is 132 % of control.

For the compound `O=C(CCCN1CCC(O)(c2cccc(C(F)(F)F)c2)CC1)c1ccc(F)cc1`, the survivor count was 6 of 6 (dose: 1.56 mg/kg/injection, schedule: Q03HX024 (ip), vehicle: Klucel (hydroxypropylcellulose) (HPC)); 3 of 6 (dose: 3.12 mg/kg/injection, schedule: Q03HX004 (ip), vehicle: Klucel (hydroxypropylcellulose) (HPC)); 2 of 6 (dose: 6.25 mg/kg/injection, schedule: Q03HX004 (ip), vehicle: Klucel (hydroxypropylcellulose) (HPC)); 0 of 6 and 2 of 6 (dose: 6.25 mg/kg/injection, schedule: Q03HX024 (ip), vehicle: Klucel (hydroxypropylcellulose) (HPC)); 4 of 6 (dose: 8.0 mg/kg/injection, schedule: Q01DX009 (ip), vehicle: Klucel (hydroxypropylcellulose) (HPC)); 3 of 6 under setting [10]. For the same compound, the survivor count was 5 of 6 (dose: 12.5 mg/kg/injection, schedule: Q03HX004 (ip), vehicle: Klucel (hydroxypropylcellulose) (HPC)); 0 of 6 and 1 of 6 (dose: 12.5 mg/kg/injection, schedule: Q03HX024 (ip), vehicle: Klucel (hydroxypropylcellulose) (HPC)); 5 of 6 under setting [11]; 0 of 6 (2×) (dose: 25.0 mg/kg/injection, schedule: Q03HX024 (ip), vehicle: Klucel (hydroxypropylcellulose) (HPC)); 4 of 6 (dose: 32.0 mg/kg/injection, schedule: Q01DX009 (ip), vehicle: Klucel (hydroxypropylcellulose) (HPC)); 3 of 6 under setting [3]. Besides, the survivor count reads like this: (dose: 64.0 mg/kg/injection, schedule: Q01DX009 (ip), vehicle: Klucel (hydroxypropylcellulose) (HPC)) 1 of 6; under setting [4], 0 of 4, 0 of 6 (2×), 2 of 6; under setting [8], 0 of 6; under setting [5], 0 of 4 and 1 of 4; (dose: 200.0 mg/kg/injection, schedule: Q04DX003 (ip), vehicle: saline) 0 of 6; (dose: 300.0 mg/kg/injection, schedule: Q01DX001 (ip), vehicle: Klucel (hydroxypropylcellulose) (HPC)) 1 of 6. In addition, the survivor count under setting [6] was 0 of 4 and 1 of 4; the survivor count (dose: 400.0 mg/kg/injection, schedule: Q04DX003 (ip), vehicle: saline) is recorded as 0 of 6. Besides, the T/C runs as follows: (dose: 6.25 mg/kg/injection, schedule: Q01DX009 (ip), vehicle: Klucel (hydroxypropylcellulose) (HPC)) 90 [4 of 6 alive], 107, 110, 112, 116 % of control; under setting [10], 100, 105, 110, 116 % of control [5 of 6 alive]; (dose: 12.5 mg/kg/injection, schedule: Q04DX003 (ip), vehicle: Klucel (hydroxypropylcellulose) (HPC)) 94, 105 (2×), 125 % of control; under setting [11], 112 [5 of 6 alive], 114 [5 of 6 alive], 115, 132 % of control; (dose: 25.0 mg/kg/injection, schedule: Q04DX003 (ip), vehicle: Klucel (hydroxypropylcellulose) (HPC)) 107 [3 of 4 alive], 108 [5 of 6 alive], 111, 131, 134, 142 % of control; (dose: 50.0 mg/kg/injection, schedule: Q01DX001 (ip), vehicle: Klucel (hydroxypropylcellulose) (HPC)) 130 % of control. The T/C runs as follows: under setting [3], 106 and 114 % of control; (dose: 50.0 mg/kg/injection, schedule: Q04DX003 (ip), vehicle: Klucel (hydroxypropylcellulose) (HPC)) 122, 124, 126, 130 [5 of 6 alive], 137, 145 % of control; under setting [4], 100 % of control.

Values taken from PubChem BioAssay AID248 (DTP/NCI, 2004).
